No constants are given. Whether binding was seen depends on the method and setting. Some binding calls cover weakened binding; strength is not graded here.

The test addresses human LPAM-1-Fc (alpha4-Fc/beta7-Fc heterodimer) (human). The experiment in a line: SPR (BIACORE) as in Example 12, polypeptide purified from E. coli as analyte on captured LPAM-1-Fc; KD drawn as bars (Example 20). For orientation: SPR reads the build-up and loss of mass on a sensor chip optically.

B1: R1R3R5 (ligand)
2D-VCAM-1 variant polypeptide: MFKIETTPESRYLAQIGDSVSLTCSTTGCESPFFFWRTLIDSPLNGKVTNEGTTSTLTMNPVSFGNEHSYLCTARCESRSLEKGIQVEIYSFPKDPEIHLSGPLEAGKPITVKCSVADVYPFDRLEIDLLKGDHLMKSQEFLEDADRKSLETKSLEVTFTPVIEDIGKVLVCRAKLHIDEMDSVPTVRQAVKELQVYISP
Consider B1, for which the binding entry is recorded as “binds”.

The values above are taken from patent publication US20120135912A1 (PERSEID THERAPEUTICS, published 2012).
